Test system: P. falciparum NF54
Assay: In vitro microplate assay against P. falciparum NF54 (3H-hypoxanthine incorporation, erythrocytic stages)
Assay type: cell-based, Plasmodium falciparum
Settings: selectivity index, L-6 cells vs P.f. NF54
Experimental: All newly synthesized compounds were tested for their antiplasmodial activity against the chloroquine-sensitive strain Plasmodium falciparum NF54. Cytotoxicity was determined using rat skeletal myofibroblasts (L-6 cells). As standards chloroquine and podophyllotoxin were used.
In vitro activity against erythrocytic stages of P. falciparum was determined with a ^3H-hypoxanthine incorporation assay, using the chloroquine sensitive NF54 strain [44]. Chloroquine (Sigma C6628) was used as standard. Test compounds were dissolved in DMSO at 10 mg/mL and added to parasite cultures incubated in RPMI 1640 medium without hypoxanthine, supplemented with HEPES (5.94 g/L, NaHCO3 (2.1 g/L), neomycin (100 U/mL), Albumax (5 g/L) and washed human red blood cells A^+ at 2.5% hematocrit (0.3% parasitemia). Serial drug dilutions of 11 3-fold dilution steps (covering a range from 100–0.002 µg/mL) were prepared. The 96-well plates were incubated at a humidified atmosphere at 37 °C; 4% CO2, 3% O2, 93% N2. After 48 h, 0.05 mL of ^3H-hypoxanthine (=0.5 µCi) was added to each well. The plates were incubated for another 24 h under the same conditions. […] The dried filters were inserted into a plastic foil with 10 mL of scintillation fluid and counted in a Betaplate liquid scintillation counter. IC50 values were determined from sigmoidal inhibition curves by linear regression using Microsoft Excel. […]

Row | Compound | S.I. = IC50 (Cyt.)/IC50 (P.f. NF54)
1 | CCN(CC)CCCC(C)Nc1ccnc2cc(Cl)ccc12 (centres unmarked) [CQ, chloroquine, reference compound] | 9672
2 | CC(C)(C)OC(=O)N1CCN(c2ccccc2NC(=O)c2cccc(C(F)(F)F)c2Oc2ccc(F)cc2)CC1 [Compound 1, tert-Butyl-4-{2-[2-(4-fluorophenoxy)-3-(trifluoromethyl)benzamido]phenyl}piperazine-1-carboxylate] | 316.9
